Measurements taken from patent US20160046678A1 (ZYNGENIA, published 2016).
Results are given in words; binding and its absence hold for the method and conditions named. Some results given as binding are weak or reduced against the parent protein; the word gives no strength.

The chains behind the UniProt entries cited, without tags or fusion partners. Residues count along the entry.
UniProt P08887, residues 20-358: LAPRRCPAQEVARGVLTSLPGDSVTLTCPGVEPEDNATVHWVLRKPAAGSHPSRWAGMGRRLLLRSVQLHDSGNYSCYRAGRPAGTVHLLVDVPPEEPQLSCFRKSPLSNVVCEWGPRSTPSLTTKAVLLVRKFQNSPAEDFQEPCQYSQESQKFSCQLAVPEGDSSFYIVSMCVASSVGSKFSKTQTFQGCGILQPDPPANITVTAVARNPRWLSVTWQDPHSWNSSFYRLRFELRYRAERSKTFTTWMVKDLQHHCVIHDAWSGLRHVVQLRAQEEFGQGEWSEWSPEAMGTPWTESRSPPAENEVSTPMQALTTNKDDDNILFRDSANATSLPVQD

B1: ILC80 (peptide)
peptide: RDWRCYLMAHWVHVCGPFIGQAGQGGPGWAGGSDMDLCQDWVYESKYCVPLA

Molecular target: IL6R (UniProt P08887)
Experiment: peptide selection, Example 48

binding, binds:
PCQWVIYHCF [ILC20], LDFLCYENIHNNFDCFRVM [ILC66], HWEFYYEFGI [ILC42], FYMEFIIWSP [ILC23], SALVLCELEMVFRECHGVL [ILC84], SRYVICDLDMVFRECHGAF [ILC83], WEIEWSWYWD [ILC21], HALHCANEERIFVQCLESS [ILC55], WCLITPWEVQCY [ILC39], SELSCYWEMKWECSWVT [ILC52], GPFMCMMDLHRDELLHCWASD [ILC74], TQHLCAWDVRSQADMCIYWT [ILC57], QCFAWEFVWHCD [ILC27], GCDFYMNLCK [ILC46], FCWSCEVFQMEICDELG [ILC53], LQCKCDEPYPSYYTCRVYF [ILC71], MYTEWQMWWIGQAGQGGGSGGGGSFYDQWEVELH [ILC31], TTMVFQASLG [ILC40], LCFCYEYEWVH [ILC41], LTWVCTVMQHMNHMECLLDL [ILC59], VYLECNVYEWPEAWCVVMP [ILC56], MTILCYEQREDMWDCWNVF [ILC63], WQEQWWYKQH [ILC50], PCYLVMMEWECM [ILC44], VASHCIQMPHWLLCQTLI [ILC67], LTWDCYQVFEEWYDCTMSH [ILC61], WLVDCWVVEDMNMICRLYE [ILC65], MLLHCPAMWKCQSDL [ILC60], MTDRCYTYEWQYTVCYGRN [ILC77], YMQWKVEWWG [ILC34], GDWEWVWDWCF [ILC19], SEFILCDLAMVFAECHGAA [ILC86], QVYVCYVLAEQHEAICTSWA [ILC58], B1, SELLLCAFDMVISECHGTT [ILC89], PCEEAFAAYLE [ILC25], WEITWDWEYY [ILC35], VWGGCWYHFTIQHWCPTLS [ILC62], AEFDWMQYGYGQAGQGGGSGGGGSYEFNWKYQEW [ILC33], LDCACHFEEHVRTIFCSIGH [ILC64], WYWMLEWEWD [ILC24], VAVDCFWVTPYEPWYCTVMS [ILC75], DSFGCTWEVWGRECHPQL [ILC90], YTWDLYIYQA [ILC28], LCYWEVWFTWE [ILC43], WTVWCEWENEYGGWCDVSL [ILC70]
